Measurements from patent publication US20220281868A1, “MACROCYCLIC DERIVATIVES AS FACTOR XIA INHIBITORS” (MEDSHINE DISCOVERY INC., priority 2019, published 2022).
The match of structure and compound is tentative.

The chains behind the UniProt entries cited, without tags or fusion partners. Residues count along the entry.
UniProt P03951, 388-625 limits assumed: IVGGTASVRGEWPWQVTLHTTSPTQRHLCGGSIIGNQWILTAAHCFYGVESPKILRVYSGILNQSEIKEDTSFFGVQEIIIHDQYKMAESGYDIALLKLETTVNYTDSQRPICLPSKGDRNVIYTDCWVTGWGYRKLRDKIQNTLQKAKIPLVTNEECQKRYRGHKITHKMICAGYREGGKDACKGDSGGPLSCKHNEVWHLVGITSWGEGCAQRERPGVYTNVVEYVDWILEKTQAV
UniProt P03951, 19-387 partner limits assumed: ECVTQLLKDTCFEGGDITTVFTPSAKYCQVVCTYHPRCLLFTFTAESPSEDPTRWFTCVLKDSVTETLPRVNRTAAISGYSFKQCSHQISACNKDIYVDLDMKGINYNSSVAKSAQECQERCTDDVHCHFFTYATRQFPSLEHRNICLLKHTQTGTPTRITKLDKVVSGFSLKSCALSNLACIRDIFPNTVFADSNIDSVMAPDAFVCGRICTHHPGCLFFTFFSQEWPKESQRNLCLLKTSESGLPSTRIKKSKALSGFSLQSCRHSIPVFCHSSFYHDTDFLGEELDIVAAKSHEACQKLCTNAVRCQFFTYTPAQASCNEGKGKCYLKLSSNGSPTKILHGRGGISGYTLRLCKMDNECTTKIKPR

Target: human factor XIa (Homo sapiens, UniProt P03951)
Experiment: Screening test of enzyme inhibitory activity on hFXIa
Conditions: read-out: hFXIa IC50; substrate S-2366/S-2306, 37° C. 10 minutes, absorbance 405 nm, pH 7.4
Procedure: 1. Screening Test of Enzyme Inhibitory Activity on hFXIa (Human Factor XIa)
Purpose of the Experiment:
Detection of the inhibitory activity of the compounds of the present disclosure on human factor XIa
1) Experimental buffer pH 7.4
100 mM Tris-HCl (Sigma, catalog number: T2663, batch number: SLBG2775)
200 mM NaCl (Sigma, catalog number: 13423, batch number: SZBB2360V)
2) Enzymes and Substrates
Enzyme, Human Factor XIa (Human Factor XIa, Abcam, Cat #ab62411): Total amount: 50 μg. Dissolved with experimental buffer and packed separately.
Substrate S-2366 (DiaPharma, catalog number: S821090): 25 mg
3) Instruments and Consumables
SpectraMax 340PC Multifunctional Microplate Reader (Molecular Devices)
384-well black transparent reaction plate (Corning Cata #3712)
Echo Liquid Workstation (Labcyte)
Echo 384-well polypropylene compound plate (Labcyte-P-05525) was used.
Echo 384 Shallow Pore Polypropylene Compound plate (Labcyte-LP-0200, 2.5-12 μL) was used.
Multidrop automatic dispenser (Thermo Scientific)
Multidrop Consumables (Thermo Scientific-24073290)
Compounds to be tested were dissolved in DMSO to form a 10 mM solution and stored in a nitrogen cabinet.
All test compounds were prepared using Echo, serially diluted and 100 nL of the compound solution was transferred to a 384-well reaction plate. Reference compounds and samples to be tested started at 200 μM (the final concentration of reaction started at 1 μM), 3-fold diluted, 10 points. High signal wells were DMSO and low signal wells were 100 μM reference compound. See Sample Distribution for sample and control distributions.
2) Human Factor XIa Enzyme Preparation
The human factor XIa enzyme was diluted to 0.5 μg/mL using experimental buffer.
3) Substrate S-2306 Preparation
A concentration of 1 mM of S-2306 was prepared with experimental buffer solution.
4) 10 μL of 0.5 μg/mL human factor XIa enzyme was added to the reaction plate using Multidrop automatic separator, and the final concentration was 5 ng/well
5) 10 μL of 1 mM S-2306 was added to the reaction plate using Multidrop automatic separator, and the final concentration was 0.5 mM.
7) The reaction plate was placed in SpectraMax 340PC and incubated at 37° C. for 10 minutes, and the absorbance was detected at 405 nm.
8) Data were analyzed using GraphPad Prism 5.0
% Inhibition rate=100%×[1−(sample reading-low signal average value)/(high signal average value-low signal average value)]
IC50 was analyzed using 4-factor linear regression:
Y=Bottom+(Top−Bottom)/(1+10^((Log IC50−X)*HillSlope))
Y was inhibition rate %, and X was the logarithm of sample concentration.

IC50 [nM] | Structure (SMILES)
3.34 | C[C@@H]1CCCC(c2coc(-c3cc(Cl)ccc3-n3cc(Cl)nn3)cc2=O)c2cc(ccn2)-c2c(cnn2C(F)F)NC1=O (single isomer, unassigned)
5.21 | C[C@@H]1CCCC(c2coc(-c3cc(Cl)ccc3-n3cnnn3)cc2=O)c2cc(ccn2)-c2c(cnn2C(F)F)NC1=O (single isomer, unassigned)
2.9 | C[C@@H]1CCCC(c2coc(-c3c(-n4cc(Cl)nn4)ccc(Cl)c3F)cc2=O)c2cc(ccn2)-c2c(cnn2C)NC1=O (stereo partly shown)
9.2 | C[C@@H]1CCCC(c2cn(C)c(-c3cc(Cl)ccc3-n3cc(Cl)nn3)cc2=O)c2cc(ccn2)-c2c(cnn2C(F)F)NC1=O (stereo partly shown)
